Some test systems named below: OR14L1 clone 1029; OR1A1 P285S clone 1531; OR1A1 R128H clone 1528; OR1A1 V233M clone 1530; OR1A1 clone 1529; OR1A2 clone 1158; OR1C1 clone 1044; OR1D2 clone 1376; OR1D5 clone 1289; OR1D5 clone 1692; OR1E1 clone 1257; OR1E1 clone 1546; OR1E2 C27R clone 1447; OR1E2 clone 1517; OR1F1 F75S clone 1281; OR1F12 clone 1694; OR1G1 clone 1488; OR1J1 clone 1696; OR1A1 V233M clone 1287.

What all share (assay): odorant receptor activation (CRE luciferase / Renilla) (fold of no-odor wells); higher = more activation
Details in all cases: 100 µM

For assay [1], the system named is OR1I1 P139R/Y252S clone 1468.

SMILES strings stand for the structures. Values joined by “and” are separate entries in the source; they are usually repeats but may differ in a detail not shown here. Identical values can stand only once. Some of the results follow. Single wells; the ratio to wells without odorant was worked out here, and repeats agree poorly.

As for `CCCCCCCCCCC=O` [undecanal], the odorant receptor activation in the assay on OR14L1 clone 1029 was found to be 1.25; in the assay on OR1A1 P285S clone 1531, 0.904; with OR1A1 R128H clone 1528, 0.943; in the assay on OR1A1 V233M clone 1530 it was 1.25; with OR1A1 clone 1529, 1; with OR1A2 clone 1158, 0.97. For the same compound, the odorant receptor activation with OR1C1 clone 1044 is 0.957; with OR1D2 clone 1376 it was 1.44; in the assay on OR1D5 clone 1289 it was 0.965; in the assay on OR1D5 clone 1692 it was 0.55; in the assay on OR1E1 clone 1257 it was 0.972; in the assay on OR1E1 clone 1546 it was 0.955. The odorant receptor activation amounted to 0.952 in the assay on OR1E2 C27R clone 1447; 1.23 in the assay on OR1E2 clone 1517; 0.885 with OR1F1 F75S clone 1281; 0.937 with OR1F12 clone 1694; 1.06 in the assay with OR1G1 clone 1488; 0.969 in assay [1]. The compound further displayed an odorant receptor activation with OR1J1 clone 1696 of 1.01.
`CC12CCC(C1)C(C)(C)C2=O` (stereo not given) [fenchone]: the odorant receptor activation with OR14L1 clone 1029 is 1.27; in the assay with OR1A1 P285S clone 1531, 1.35; in the assay on OR1A1 R128H clone 1528, 1.17; with OR1A1 V233M clone 1530, 0.982; with OR1A1 clone 1529, 0.947; in the assay with OR1A2 clone 1158, 1.15. Besides, the odorant receptor activation with OR1C1 clone 1044 stood at 0.96; with OR1D2 clone 1376, 0.846; with OR1D5 clone 1289 it was 1.14; in the assay with OR1D5 clone 1692 it was 0.868; with OR1E1 clone 1257 it was 0.942; with OR1E1 clone 1546, 1.06. Moreover, the odorant receptor activation in the assay on OR1E2 C27R clone 1447 was 0.864; in the assay with OR1E2 clone 1517, 1.19; with OR1F1 F75S clone 1281, 0.891; with OR1F12 clone 1694, 0.695; with OR1G1 clone 1488, 0.885; in assay [1], 0.934. Also, the odorant receptor activation in the assay on OR1J1 clone 1696 amounted to 0.739.
Take `CCCCCCCCC=O` [nonyl aldehyde]: the odorant receptor activation in the assay with OR14L1 clone 1029 turned out to be 1.16; in the assay on OR1A1 P285S clone 1531, 1.16; in the assay on OR1A1 R128H clone 1528, 1.23; with OR1A1 V233M clone 1530, 1.14; in the assay on OR1A1 clone 1529, 0.924; in the assay with OR1A2 clone 1158 it was 1.15. For the same compound, the odorant receptor activation with OR1C1 clone 1044 turned out to be 0.92; in the assay on OR1D2 clone 1376, 1.09; with OR1D5 clone 1289, 1.08; in the assay with OR1D5 clone 1692 it was 0.693; in the assay with OR1E1 clone 1257, 0.93; in the assay with OR1E1 clone 1546, 0.828. The odorant receptor activation in the assay on OR1E2 C27R clone 1447 is 1.3; in the assay on OR1E2 clone 1517, 0.991; in the assay with OR1F1 F75S clone 1281 it was 1; in the assay on OR1F12 clone 1694 it was 0.909; with OR1G1 clone 1488, 1.3; in [1] it was 0.887. This compound showed an odorant receptor activation with OR1J1 clone 1696 of 0.725.
`COC(=O)c1ccccc1` [methyl benzoate]: the odorant receptor activation in the assay on OR14L1 clone 1029 was 0.865; in the assay on OR1A1 P285S clone 1531 it was 0.811 and 1.1; in the assay with OR1A1 R128H clone 1528 it was 0.87 and 1.15; with OR1A1 V233M clone 1287, 1.28; in the assay with OR1A1 V233M clone 1530, 1.24 and 1.37; in the assay on OR1A1 clone 1529 it was 0.623 and 1.28. Further, the odorant receptor activation worked out at 0.961 in the assay with OR1A2 clone 1158; 2.01 with OR1C1 clone 1044; 1.05 in the assay on OR1D2 clone 1376; 0.643 with OR1D5 clone 1289; 0.417 in the assay with OR1E1 clone 1257; 0.771 with OR1E2 C27R clone 1447. For the same compound, the odorant receptor activation in the assay with OR1E2 clone 1517 is 0.982 and 0.983; in the assay with OR1F1 F75S clone 1281, 0.474; in the assay on OR1G1 clone 1488, 0.539 and 0.857; in [1], 0.964 and 0.488.
In the case of `C=C(C)C1CCC2=CC(=O)CC(C)C2(C)C1` (stereo not given) [amyl laurate], the odorant receptor activation in the assay on OR1A1 V233M clone 1287 worked out at 2.22; with OR1D5 clone 1692, 0.962; with OR1F12 clone 1694, 1.56; with OR1J1 clone 1696, 1.85.
Consider `CC=Cc1ccc(O)c(OC)c1` [isoeugenol], for which the odorant receptor activation is 2.27 in the assay with OR14L1 clone 1029; 3.08 and 2.8 in the assay on OR1A1 R128H clone 1528; 4.61 and 2.96 in the assay on OR1A1 V233M clone 1530; 1.35 and 2.71 with OR1A1 clone 1529; 0.942 in the assay on OR1A2 clone 1158; 0.765 in the assay with OR1C1 clone 1044. For the same compound, the odorant receptor activation is 1.69 in the assay on OR1D2 clone 1376; 0.885 and 1.79 in the assay on OR1D5 clone 1289; 3.27 with OR1D5 clone 1692; 0.843 and 0.933 in the assay on OR1E1 clone 1257; 1.29 and 2.12 in the assay with OR1E1 clone 1546; 1.71 in the assay on OR1E2 C27R clone 1447. Besides, the odorant receptor activation in the assay on OR1E2 clone 1517 was 1.34 and 1.79; in the assay with OR1F1 F75S clone 1281, 1 and 1.38; in the assay on OR1F12 clone 1694 it was 4.56; with OR1G1 clone 1488, 0.843 and 2.41; in assay [1], 1.05 and 2.65; in the assay with OR1J1 clone 1696, 3.12.
Regarding `C=C(C)C1CC=C(C)C(=O)C1` (stereo not given) [r-carvone], the odorant receptor activation in the assay on OR14L1 clone 1029 stood at 1.11; with OR1A1 P285S clone 1531, 5.2; in the assay on OR1A1 R128H clone 1528, 8.1; in the assay with OR1A1 clone 1529 it was 6.45; in the assay on OR1A2 clone 1158, 0.981; in the assay on OR1C1 clone 1044 it was 0.891. The odorant receptor activation worked out at 1.1 with OR1D2 clone 1376; 0.705 with OR1D5 clone 1289; 0.718 in the assay on OR1D5 clone 1692; 1.16 in the assay on OR1E1 clone 1257; 0.905 with OR1E1 clone 1546; 0.942 in the assay with OR1E2 C27R clone 1447. Moreover, the odorant receptor activation with OR1E2 clone 1517 amounted to 0.867; in the assay on OR1F1 F75S clone 1281, 0.671; in the assay on OR1F12 clone 1694, 0.787; in the assay on OR1G1 clone 1488, 0.841; in assay [1] it was 1.04; in the assay with OR1J1 clone 1696, 0.932.
Turning to `CC12C=CCC1C1CCC3CC(=O)CCC3(C)C1CC2` (stereo not given) [androstenone], the odorant receptor activation came to 1.75 in the assay with OR14L1 clone 1029; 0.872 with OR1A1 P285S clone 1531; 1.1 in the assay on OR1A1 R128H clone 1528; 1.52 in the assay with OR1A1 V233M clone 1287; 1.47 with OR1A1 V233M clone 1530; 1.21 in the assay on OR1A1 clone 1529. For the same compound, the odorant receptor activation in the assay on OR1A2 clone 1158 turned out to be 6.11; in the assay on OR1C1 clone 1044 it was 1.98; with OR1D2 clone 1376, 0.59; with OR1D5 clone 1289, 1.04; in the assay with OR1E1 clone 1257, 1.67; with OR1E1 clone 1546, 1.07. The odorant receptor activation in the assay with OR1E2 C27R clone 1447 came out at 1.08; in the assay with OR1E2 clone 1517, 1.22; with OR1F1 F75S clone 1281, 1.24; with OR1G1 clone 1488, 1.18; in assay [1], 1.12.

(Values after the odorant receptor screen of Mainland et al. (2015).)
